# PubChem BioAssay AID2685 (National Center for Advancing Translational Sciences (NCATS), 2010)
# This is one part of the list. Further columns of the screen follow, without active or inactive calls. The list favours compounds with an active or inconclusive main result. Words in brackets tell the shape of the fitted curve; partial curves, single points and poor fits give uncertain potencies.
# Assay: qHTS Assay for Lipid Storage Modulators in Drosophila S3 Cells;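 for cell number change: cells counted by Cell Tracker Red CMTPX staining in the red channel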
# Conditions: BODIPY lipid droplet fluorescence, 18-24 h; for cell number change: measured here: cell count max response, cells fed with added oleic acid
# In short: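 Drosophila S3 cells got compounds at several concentrations plus oleic acid (400 uM solution). Laser-scanning cytometry with 488 nm excitation read lipid droplets at 500-530 nm and cells at 575-640 nm. Percent activity was relative to 20 uM Triacsin C.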
# [1] = measured here: cell number channel AC50, cells fed with added oleic acid
# [2] = measured here: lipid fluorescence (Fed channel) AC50, cells fed with added oleic acid
Structure (SMILES),cell number change [%],AC50 [1],AC50 [2]
COc1cc(/C=N/n2c(-c3cc(C)[nH]n3)n[nH]c2=S)cc(OC)c1OC,-23.6,"0.146 µM [falling, full curve, poor fit]","0.184 µM [falling, full curve, poor fit]"
O=C(CSc1nnc(-c2csc3c2CCCC3)o1)Nc1ccccc1,-74.4,"20.6 µM [falling, single point]","16.4 µM [falling, single point]"
N#CC1=C(N)Oc2cc(O)ccc2C1c1cccnc1 (centres undefined),–,"0.461 µM [rising, single point]","0.146 µM [rising, full curve]"
COc1cccc2c(=O)n(CC(=O)N3CCCCCC3)ccc12,–,"5.17 µM [falling, single point]","5.8 µM [falling, single point]"
COc1cccc(N2CC(C(=O)NC3CCCCC3)CC2=O)c1 (centres undefined),-9.88,"0.259 µM [rising, full curve, poor fit]",–
O=C(c1ccc(Cl)nc1)N1CCC(Cc2ccccc2)CC1,-4.46,–,–
O=C(N=c1ccn(-c2nc3ccccc3nc2NS(=O)(=O)c2ccc(Cl)cc2)cc1)c1ccccc1Cl,-7.62,–,"0.0731 µM [falling, full curve, poor fit]"
O=C(Nc1nc(-c2ccccc2)nc2ccccc12)c1ccc(F)cc1,–,–,"6.51 µM [rising, single point]"
Clc1ccc(OCCCCN2CCCCC2)cc1,-22.2,–,–
CCc1ccccc1OCC(=O)Nc1ccc(S(N)(=O)=O)cc1,-4.67,–,"9.2 µM [rising, partial curve]"
CCC(Oc1ccccc1)C(=O)Nc1ccccc1OC (centres undefined),12.7,–,"0.651 µM [falling, single point]"
COc1ccccc1CNC1CCCc2ccccc21 (centres undefined),-0.794,–,"23.1 µM [rising, partial curve]"
CC(=O)O/N=C/c1c(N2CCOCC2)n(C)c2ccccc12,12.6,–,–
Oc1ccccc1/C=N/NC(=S)NC1CC2CC1C1C=CCC21 (centres undefined),-59,"29.1 µM [falling, single point]","32.6 µM [falling, single point]"
O=C(COc1ccccc1[N+](=O)[O-])Nc1ccc2c(c1)CCC2,-26.1,–,"0.00411 µM [rising, full curve, poor fit]"
Cc1cccc(N2CCN(C(=O)CCc3nc4ccccc4[nH]3)CC2C)c1 (centres undefined),5.88,–,"1.3 µM [rising, partial curve]"
O=C(c1ccccc1-c1nc(-c2ccccc2)no1)N1CCOCC1,58.7,"13 µM [rising, partial curve, poor fit]","6.51 µM [falling, single point]"
Cc1ccc(S(=O)(=O)Nc2ccc(-c3nnc(SCC#N)n3C)cc2)cc1,19.5,–,"29.1 µM [rising, single point]"
CC(C)C[C@H](NC(=O)c1nc[nH]c1C(=O)N[C@@H](CC(C)C)C(=O)OCc1ccccc1)C(=O)OCc1ccccc1,70.7,"20.6 µM [rising, single point]",–
CC(C)(C)C1(c2ccccc2)NC(=O)N(CC(=O)N2CCOCC2)C1=O (centres undefined),5.52,–,–
Cc1ccccc1SCC(=O)N/N=C/c1ccc(F)cc1,-28,–,"29.1 µM [falling, single point]"

Structure (SMILES),cell number change [%],AC50 [1],AC50 [2]
Cc1ccc(/C=C(/C#N)C(=O)NC(=O)Oc2ccccc2)cc1,5.95,–,"29.1 µM [falling, single point]"
O=C(c1cccc(S(=O)(=O)NCc2ccccc2)c1)N1CCN(c2ccc(F)cc2)CC1,29,–,"0.411 µM [rising, partial curve]"
CC(C)CCNC(=O)Cn1c(=O)oc2cc(S(=O)(=O)N3CC(C)CC(C)C3)ccc21 (centres undefined),-29.5,–,"11.6 µM [falling, partial curve, poor fit]"
COc1ccc(S(=O)(=O)N2Cc3ccccc3CC2C(=O)O)cc1 (centres undefined),–,–,"3.26 µM [falling, partial curve]"
CN(c1ccc(C(=O)N2CCN(Cc3ccc4c(c3)OCO4)CC2)cc1)S(C)(=O)=O,-9.84,–,"6.51 µM [falling, single point]"
N#Cc1ccccc1S(=O)(=O)N1CCN(C(=O)C2COc3ccccc3O2)CC1 (centres undefined),6.32,–,"0.00461 µM [rising, full curve, poor fit]"
COc1ccc(NC2CCCN(C(=O)c3ccc4nccnc4c3)C2)cc1OC (centres undefined),7.8,–,"6.51 µM [falling, single point]"
CN(C(=O)c1ccncc1)c1nnc(-c2ccncc2)s1,4.73,–,"2.31 µM [falling, partial curve, poor fit]"
CCOC(=O)c1c(N)n(-c2ccc(N)cc2)c2nc3ccccc3nc12,–,–,"1.84 µM [rising, single point]"
COc1cc(/C=C2\SC(=S)N(Nc3ccccc3)C2=O)cc(OC)c1OC,8.92,–,"20.6 µM [rising, partial curve]"
NC(=S)N/N=C\c1ccc(-c2cccc(Cl)c2Cl)o1,–,"2.91 µM [rising, partial curve]","0.231 µM [rising, full curve]"
CCOC(=O)C(=CNc1ccc(N2CCOCC2)cc1)C(=O)OCC,-48.1,"0.00461 µM [falling, full curve, poor fit]","18.4 µM [falling, partial curve, poor fit]"
COc1ccc(-c2nnc(CSc3nc4ccccc4c(=O)n3C)o2)cc1OC,13.4,–,–
O=[N+]([O-])c1ccc(Sc2cccc[n+]2[O-])c2nonc12,-45.6,"3.66 µM [falling, full curve]","2.31 µM [falling, full curve]"
CCC(=O)Nc1cc(OC)c(NC(=O)c2ccccc2)cc1OC,–,"2.31 µM [rising, partial curve]","0.0651 µM [rising, full curve, poor fit]"
Cc1cc(C(=O)Nc2cccc3ccccc23)co1,2.27,–,"0.58 µM [rising, single point]"
COc1cc(C(=O)N2CCC(C(=O)Nc3cccc(C(C)=O)c3)CC2)cc(OC)c1OC,-0.722,–,"0.0651 µM [falling, full curve, poor fit]"
CCOP(=O)(c1ccccc1)C1(C#N)CC1 (centres undefined),12.4,"2.91 µM [falling, single point]",–
CCOC(=O)N1CCC(C(=O)NNC(=O)c2ccc(Cl)cc2Cl)CC1,21.2,–,"0.92 µM [rising, full curve]"
O=C(O)c1ccc(-n2nnnc2Oc2ccccc2C(=O)N2CCOCC2)cc1,0.811,–,"4.11 µM [falling, single point]"
Cc1ccccc1-n1c(SCC(=O)Nc2cccc3ccccc23)nc(O)cc1=O,-5.34,–,–

Structure (SMILES),cell number change [%],AC50 [1],AC50 [2]
CCCCCC(=O)N1CCN(CCN=CC2=C(O)CC(c3ccco3)CC2=O)CC1 (centres undefined),14.3,–,"18.4 µM [rising, single point]"
CCOC(=O)C1CCCN(Cc2nc(Cc3cccc(F)c3)no2)C1 (centres undefined),24.1,–,"14.6 µM [rising, partial curve, poor fit]"
O=C(O)C(Cc1c[nH]c2ccccc12)NS(=O)(=O)c1cccc(Cl)c1Cl (centres undefined),17.6,–,"13 µM [rising, partial curve, poor fit]"
CNC(=O)COC(=O)c1cc(-c2ccc(OC)cc2)nc2ccccc12,–,–,"16.4 µM [rising, single point]"
CC(=O)NC(C)C(c1cccs1)N1CCN(c2ccccc2)CC1 (centres undefined),141,"14.6 µM [rising, partial curve]","23.1 µM [rising, single point]"
CCOC(=O)C1=C(COC(=O)/C=C/c2cccc(Cl)c2)NC(=O)NC1C (centres undefined),-23.9,–,–
CCc1cc(=O)oc2c(C)c(O)c(CN3CCCCC3)cc12,-7.77,–,"32.6 µM [rising, single point]"
Cc1ccc(C(=O)N[C@H](C(=O)Nc2cc(Cl)cc(Cl)c2)C(C)C)cc1,14.9,–,"5.8 µM [rising, partial curve, poor fit]"
Cc1ccc(S(=O)(=O)Nc2ccc(C(=O)N3CCCC3)cc2)c(C)c1NS(C)(=O)=O,12.9,–,"2.91 µM [rising, full curve, poor fit]"
O=C(CNC(c1ccccc1)c1ccccc1)Nc1ccccc1Br,-16.7,–,–
CN(C)N=Nc1nc2c(c(=O)n(C)c(=O)n2C)n1C,14.4,–,"6.51 µM [falling, single point]"
COc1ccccc1/C=N/NC(=O)c1ccc(C)nc1,9.07,–,"10.3 µM [rising, single point]"
Cc1c(C)n(C(=O)CN2CCC(C)CC2)c2ccccc12,-12,–,–
CC1(C)CC(NC(=O)c2cc(S(=O)(=O)N3CCCCC3)ccc2Cl)CC(C)(C)N1,–,–,"16.4 µM [rising, single point]"
CC(C)n1cc(-c2ccc(Cl)cc2)cc(C#N)c1=O,-3.33,–,–
Cc1ccccc1C(=O)NNC(=O)c1cc(N)cc([N+](=O)[O-])c1,58.9,"16.4 µM [rising, single point]","29.1 µM [rising, single point]"
CC(=O)NCC(=O)NC(C(=O)Nc1ccc2c(c1)OCCO2)c1ccc(C)cc1 (centres undefined),-10.3,"0.00517 µM [falling, full curve, poor fit]",–
Clc1ccc(/C=N/Nc2nc(Cl)nc3ccccc23)cc1,0.891,–,–
O=C(Nc1cnn(Cc2ccccc2)c1)c1nc2ncccn2n1,41.2,"20.6 µM [rising, single point]",–

# An excerpt of these results, tab-delimited.
Structure (SMILES)	cell number change [%]	AC50 [1]	AC50 [2]
Cc1ccc(C(=O)N[C@H](C(=O)Nc2cc(Cl)cc(Cl)c2)C(C)C)cc1	14.9	–	5.8 µM [rising, partial curve, poor fit]
Cc1ccc(S(=O)(=O)Nc2ccc(C(=O)N3CCCC3)cc2)c(C)c1NS(C)(=O)=O	12.9	–	2.91 µM [rising, full curve, poor fit]
